# PubChem BioAssay AID652272 – Drosophila RNAi Screening Center – 2013
# Purpose: 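Finding fly genes that regulate Hedgehog signal transduction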 (primary screen)
# Cell system: Drosophila clone 8 (Cl8) cells
# Reagents: long dsRNA against Drosophila genes
# Detection: 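Firefly light from a Hedgehog-responsive ptc promoter reporter and Renilla reference light, both read on a plate reader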
# Scale: firefly Hh reporter signal: higher = more ptc reporter light; Renilla reference signal: higher = more Renilla control light
# Active means: 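Called a hit if the two-replicate mean z-score lies below -2 or above +3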
# Calls: active = hit: reporter lowered or raised; inactive = not a hit
# The screen tested about 21,000 reagents; below is an unselected part of those with a known target gene and a result. Of all reagents, 503 (2.4%) were called active. 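Raw plate light values, not normalised; calls rest on replicate z-scores that were not deposited; hits include reporter decreases as well as increases.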 Unmarked entries are inactive. The numbers tell different reagents against one gene apart. A plus sign joins genes that one reagent is predicted to hit. Not stated in the record: the amount of reagent, the time to read-out.
gene,reagent,"firefly Hh reporter signal, replicate 1","firefly Hh reporter signal, replicate 2","firefly Hh reporter signal, replicate 3","Renilla reference signal, replicate 1","Renilla reference signal, replicate 2"
CG13894,1,30713,15984,,1377,1621
CG4607,1,82448,2.09e5,,2609,8400
dtn,1,84048,2.36e5,,2236,7241
CheB53b,1,1.36e5,1.97e5,,3921,8400
CG4409,1,95659,41216,,2666,3719
Sdc,1,55328,64002,,1810,5708
CG10587,1,99288,1.22e5,,3805,3481
wntD,1,1.27e5,97852,,3531,2109
Rdh,1,41836,46535,,1506,2561
Rdh,2,60016,1.32e5,15468,1789,8708
Skp2 + CG1103,1,1.80e5,1.36e5,,8003,4890
CG3224,1,74272,2.23e5,,3138,9453
Ank2,1,1.22e5,2.55e5,,2981,8969
Ank2,2,59232,67451,,4672,4720
Ank2,3,59640,54121,,4993,4164
Ank2,4,69387,45984,,5472,3340
Ccdc56 + mtTFB1,1,1.39e5,1.47e5,,5571,6272
CG15414,1,1.69e5,91446,,4484,7501
Phb2,1,4.85e5,73145,,3180,3180
CR42545,1,86648,1.05e5,,2002,7539
CG5421,1,1.16e5,63212,,2880,5596
CG2111,1,46432,2.28e5,,1538,8370
CG33223,1,4.57e5,1.57e5,,31867,4272
CG30384,1,93076,54122,,2208,4226
qjt,1,1.03e5,,,4153,2936
wrapper,1,84340,69372,,3113,2401
CG4645,1,86470,57906,,2696,1491
RagC-D,1,75683,83697,,2521,3306
Cpsf160,1,64147,60392,,4025,2924
Fbp1,1,76496,,,2573,2113
GstE7,1,1.12e5,1.07e5,,5830,4611
whd,1,68636,49620,,2835,2080
Wdr24,1,92220,57664,,2502,1800
MnM,1,88525,34873,,2051,1296
Rgk1,1,92561,1.73e5,,2537,8202
Rgk1,2,92852,1.78e5,,2551,7755
Rgk1,3,1.87e5,3.90e5,,5505,15760
Rgk1,4,75840,45852,,1619,3563
Rgk1,5,31744,19603,,922,1410
